Results deposited as PubChem BioAssay AID1224826 (NIAID, 2016)

- Purpose: 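Regulators of Tlr4 signalling leading to Tnf-alpha expression in macrophages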 (primary screen)
- System: RAW264.7 G9 macrophages from mouse bearing reporters for p65 (GFP) and the Tnf promoter (mCherry)
- Reagent: siRNA pool against mouse genes, 100 nM
- Timing: 16 h of LPS stimulation, after 2 days of siRNA transfection
- Conditions: bacterial lipopolysaccharide (Salmonella minnesota R595), 10 ng/ml
- Measured: 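Imaged Tnf reporter mCherry in nuclei, minus background, normalised per plate to the median and expressed as robust z-scores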
- Direction: Tnf reporter robust z-score: higher = stronger Tnf promoter reporter signal after LPS
- Active means: 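a well counts as active at a score of -1.3 or below (Tlr4 knock-down control median) or above 3 (raised signal); controls and wells holding fewer than 50 cells are excluded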
- Meaning of the calls: active = Tnf reporter clearly lowered or raised; inactive = no clear change in Tnf reporter
Here is one part, drawn at random, of about 17,000 deposited reagents. Over the whole deposit, about 1,110 (6.6%) are marked active. 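Active means lowered or raised reporter signal; replicate intensities are raw and not normalised per plate.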 Not all columns of the deposit are shown. Reagent sequences are not shown.

Silencing of Nptx1 resulted in: Tnf reporter robust z-score 1.35; fewer than 50 cells in well enough cells in well; inactive.
Silencing of Cttnbp2nl gave: Tnf reporter robust z-score 0.1; fewer than 50 cells in well enough cells in well; inactive.
For Adcy7, the values are Tnf reporter robust z-score 0.57; fewer than 50 cells in well enough cells in well; inactive.
With knock-down of Limk2, the record shows Tnf reporter robust z-score -0.42; fewer than 50 cells in well enough cells in well; inactive.
Silencing of Prrc2a resulted in: Tnf reporter robust z-score 0; fewer than 50 cells in well enough cells in well; inactive.
After knock-down of Or10d3 the results were Tnf reporter robust z-score 1.56; fewer than 50 cells in well enough cells in well; inactive.
After knock-down of Zar1, the screen gave Tnf reporter robust z-score -1.13; fewer than 50 cells in well enough cells in well; inactive.
Zfp1006 scored Tnf reporter robust z-score 0.92; fewer than 50 cells in well enough cells in well; inactive.
Depletion of Lman1l gave: Tnf reporter robust z-score 1.87; fewer than 50 cells in well enough cells in well; inactive.
With knock-down of Klhdc2 the results were Tnf reporter robust z-score -0.7; fewer than 50 cells in well enough cells in well; inactive.
Silencing of Erc1 came out at: Tnf reporter robust z-score 0; fewer than 50 cells in well enough cells in well; inactive.
After knock-down of Spag5, the record shows Tnf reporter robust z-score 0.37; fewer than 50 cells in well enough cells in well; inactive.
With knock-down of Rnf19a the results were Tnf reporter robust z-score 1.78; fewer than 50 cells in well enough cells in well; inactive.
Knock-down of Agap3 came out at: Tnf reporter robust z-score 1.16; fewer than 50 cells in well enough cells in well; inactive.
For Rad51ap1, the entry reads Tnf reporter robust z-score -0.77; fewer than 50 cells in well enough cells in well; inactive.
Silencing of Pla2g10 resulted in: Tnf reporter robust z-score 0; fewer than 50 cells in well enough cells in well; inactive.
Against Mxra8 the deposit lists Tnf reporter robust z-score 3.13; fewer than 50 cells in well enough cells in well; active.

An excerpt from above, showing only “Tnf reporter robust z-score”:
Zar1: -1.13
Zfp1006: 0.92
Lman1l: 1.87

The listing continues:
Knock-down of Tonsl came out at: Tnf reporter robust z-score 2.21; fewer than 50 cells in well enough cells in well; inactive.
Depletion of Ticam1 resulted in: Tnf reporter robust z-score -0.94; fewer than 50 cells in well enough cells in well; inactive.
After knock-down of Ptger4, the record shows Tnf reporter robust z-score -0.57; fewer than 50 cells in well enough cells in well; inactive.
For Gykl1 the deposit lists Tnf reporter robust z-score 0.46; fewer than 50 cells in well enough cells in well; inactive.
Knock-down of Phxr5 gave: Tnf reporter robust z-score 0.39; fewer than 50 cells in well enough cells in well; inactive.
For Avpi1, the values are Tnf reporter robust z-score 0.67; fewer than 50 cells in well enough cells in well; inactive.
Plk5 gave Tnf reporter robust z-score -0.67; fewer than 50 cells in well enough cells in well; inactive.
Knock-down of Trim16 resulted in: Tnf reporter robust z-score -0.47; fewer than 50 cells in well enough cells in well; inactive.
With knock-down of Il23a, the screen gave Tnf reporter robust z-score 1.27; fewer than 50 cells in well enough cells in well; inactive.
Ddx17 showed fewer than 50 cells in well fewer than 50 cells per well; well left out of calls; inactive.
